The results in this text go back to patent publication US20060251664A1, “Method for the identification of epitopes related to immunogenicity in biopharmaceuticals” (priority 2005, published 2006).

Amino acid sequences for entries named in this document (tags omitted). A change or cut given only in a name is not applied to a line headed by its entry.
UniProt P01574: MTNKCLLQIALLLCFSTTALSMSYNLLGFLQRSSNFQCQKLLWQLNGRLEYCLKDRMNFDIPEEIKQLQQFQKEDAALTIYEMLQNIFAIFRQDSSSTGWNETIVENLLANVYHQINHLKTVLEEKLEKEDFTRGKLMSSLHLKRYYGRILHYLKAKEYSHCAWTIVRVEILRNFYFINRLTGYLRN

This data set relates to HLA-DR molecules of human dendritic cells. The experiment in a line: Identification of naturally processed HLA-DR-associated peptide epitopes from dendritic cells pulsed with the therapeutic protein (L243 immunoprecipitation, 2D-LC/MS-MS). The settings on record: IFN-β-1b 20 μg/ml, 24 hrs. The data set is classed as cell-based.

B1: Betaseron: IFN-β-1b expressed in E. coli, non-glycosylated, Met-1 deletion and Cys-17 to Ser point-mutation (protein, UniProt P01574 22-187, looked up, variant M1* C17S)
Interferon beta: SYNLLGFLQRSSNFQSQKLLWQLNGRLEYCLKDRMNFDIPEEIKQLQQFQKEDAALTIYEMLQNIFAIFRQDSSSTGWNETIVENLLANVYHQINHLKTVLEEKLEKEDFTRGKLMSSLHLKRYYGRILHYLKAKEYSHCAWTIVRVEILRNFYFINRLTGYLRN
modifications: non-glycosylated, E. coli
notes: IFN-β-1b expressed in E. coli, non-glycosylated, Met-1 deletion and Cys-17 to Ser point-mutation
Take B1: the “number of IFN-β-1b-derived epitopes among HLA-DR-associated ligands” value reads like this: (dendritic cells HLA-DRB1*0101/0701) “one”; (dendritic cells HLA-DRB1*0101/1401) 2; (dendritic cells HLA-DRB1*0801/0801) 2; (dendritic cells HLA-DRB1*1101/1404) 2; (dendritic cells HLA-DRB1*1303/1501) 1.
